Values from PubChem BioAssay AID1259254 (NCATS, 2017)
Purpose: 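Finding genes that stop cells copying their DNA twice in one cycle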 (primary screen). System: human HCT116 colorectal cancer cells. Reagents: single siRNA against human genes. Time to read-out: 3 days. Detection: 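Imaged Hoechst DNA stain sorts each cell into a cycle phase by DNA amount; per plate, G2 fraction set to 0% for non-targeting and 100% for GMNN siRNA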. Reading the numbers: G2 robust z-score and G2 cells, % of GMNN control: higher = more G2 cells, more excess DNA replication; raw share of cells in G2: higher = larger share of cells with G2 DNA content. Rule for the call: 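Active siRNAs have a G2 robust z of 5 or more median absolute deviations over the median, which in these data means about 38% or higher of GMNN control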.
The deposit covers about 59,000 reagents; shown is a random part of them. About 1,550 of them (2.6%) were called active. 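G2 share is only a proxy for re-replication; each gene was hit by three separate siRNAs, and active genes were retested.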 Raw values are not corrected between plates. A number with no mark means an inactive call. The numbers tell different reagents against one gene apart. Not given: the amount of reagent.

gene	reagent no.	G2 robust z-score	G2 cells, % of GMNN control	raw share of cells in G2 (%)
AQP1 (GeneID 358)	1	-0.108	2.21	5.86
AQP1 (GeneID 358)	2	0.254	4.76	5.76
AQP1 (GeneID 358)	3	3.28	26	13.6
MYO16 (GeneID 23026)	1	0.0511	3.33	7.7
MYO16 (GeneID 23026)	2	-1.16	-5.21	2.41
MYO16 (GeneID 23026)	3	-1.08	-4.65	2.27
SLCO1C1 (GeneID 53919)	1	-0.897	-3.34	2.52
SLCO1C1 (GeneID 53919)	2	2.16	18.2	14.2
SLCO1C1 (GeneID 53919)	3	-0.614	-1.35	3.74
MUC21 (GeneID 394263)	1	-0.327	0.67	4.05
MUC21 (GeneID 394263)	2	0.56	6.91	6.26
MUC21 (GeneID 394263)	3	-0.0477	2.63	5.88
KLRC4 (GeneID 8302)	1	0.664	7.64	7.95
KLRC4 (GeneID 8302)	2	-0.865	-3.12	3.12
KLRC4 (GeneID 8302)	3	-0.722	-2.12	3.95
MRPL49 (GeneID 740)	1	0.949	9.65	9.83
MRPL49 (GeneID 740)	2	0.775	8.42	7.17
MRPL49 (GeneID 740)	3	0.0992	3.67	4.96
MATN3 (GeneID 4148)	1	1.74	15.2	9.51
MATN3 (GeneID 4148)	2	-0.455	-0.231	4.74
MATN3 (GeneID 4148)	3	-0.104	2.23	3.92
EMP2P1 (GeneID 391359)	1	-0.0273	2.78	4.82
EMP2P1 (GeneID 391359)	2	0.171	4.17	5.17
EMP2P1 (GeneID 391359)	3	-0.491	-0.484	4.59
ZCWPW1 (GeneID 55063)	1	1.07	10.5	8.55
ZCWPW1 (GeneID 55063)	2	-0.469	-0.329	4
ZCWPW1 (GeneID 55063)	3	0.0314	3.19	4.15
ADCY9 (GeneID 115)	1	0.418	5.91	7.18
ADCY9 (GeneID 115)	2	0.275	4.9	5.82
ADCY9 (GeneID 115)	3	-0.171	1.77	5.32
TP53BP1 (GeneID 7158)	1	-1.32	-6.3	2.94
TP53BP1 (GeneID 7158)	2	-0.833	-2.89	3.52
TP53BP1 (GeneID 7158)	3	-0.416	0.0404	4.28
TENM2 (GeneID 57451)	1	0.771	8.39	9.12
TENM2 (GeneID 57451)	2	-0.368	0.381	4.48
TENM2 (GeneID 57451)	3	-0.261	1.13	4.64
PALM (GeneID 5064)	1	0.432	6	7.53
PALM (GeneID 5064)	2	-0.678	-1.8	3.51
PALM (GeneID 5064)	3	-0.933	-3.59	2.06
ZFAND6 (GeneID 54469)	1	-0.928	-3.56	2.93
ZFAND6 (GeneID 54469)	2	-0.774	-2.48	2.85
ZFAND6 (GeneID 54469)	3	0.455	6.17	8.75
GPRC5C (GeneID 55890)	1	-0.765	-2.41	4.98
GPRC5C (GeneID 55890)	2	0.296	5.05	6.28
GPRC5C (GeneID 55890)	3	0.339	5.35	4.91
PRG2 (GeneID 5553)	1	0.444	6.09	7.56
PRG2 (GeneID 5553)	2	-0.296	0.882	4.57
PRG2 (GeneID 5553)	3	0.00498	3	4.44
EOGT (GeneID 285203)	1	1.21	11.5	8.49
EOGT (GeneID 285203)	2	-0.946	-3.69	4.31
EOGT (GeneID 285203)	3	-0.516	-0.663	4.7
OR2A2 (GeneID 442361)	1	0.322	5.23	5.64
OR2A2 (GeneID 442361)	2	0.749	8.24	6.54
OR2A2 (GeneID 442361)	3	0.362	5.51	4.99
RNASEL (GeneID 6041)	1	0.159	4.08	6.96
RNASEL (GeneID 6041)	2	-0.806	-2.71	4.5
RNASEL (GeneID 6041)	3	-1.48	-7.41	1.41
TBC1D9B (GeneID 23061)	1	0.41	5.85	5.87
TBC1D9B (GeneID 23061)	2	-1.21	-5.53	4.15
TBC1D9B (GeneID 23061)	3	-0.997	-4.05	2.8
RABEP2 (GeneID 79874)	1	6.22 (active)	46.7	24.9
RABEP2 (GeneID 79874)	2	0.0376	3.23	5.36
RABEP2 (GeneID 79874)	3	0.063	3.41	6.05
BARD1 (GeneID 580)	1	5.05 (active)	38.5	23.4
BARD1 (GeneID 580)	2	1.94	16.6	10.2
BARD1 (GeneID 580)	3	2.37	19.7	11.2
NVL (GeneID 4931)	1	0.756	8.29	8.11
NVL (GeneID 4931)	2	-0.379	0.3	5.32
NVL (GeneID 4931)	3	-0.0792	2.41	4.02

Reagents listed above marked active, once more:
gene	reagent no.	G2 robust z-score	G2 cells, % of GMNN control	raw share of cells in G2 (%)
RABEP2 (GeneID 79874)	1	6.22 (active)	46.7	24.9
BARD1 (GeneID 580)	1	5.05 (active)	38.5	23.4
